Data on 6 molecules can be found in publication PMC13476778.

The chains behind the UniProt entries cited, without tags or fusion partners.
UniProt O75400: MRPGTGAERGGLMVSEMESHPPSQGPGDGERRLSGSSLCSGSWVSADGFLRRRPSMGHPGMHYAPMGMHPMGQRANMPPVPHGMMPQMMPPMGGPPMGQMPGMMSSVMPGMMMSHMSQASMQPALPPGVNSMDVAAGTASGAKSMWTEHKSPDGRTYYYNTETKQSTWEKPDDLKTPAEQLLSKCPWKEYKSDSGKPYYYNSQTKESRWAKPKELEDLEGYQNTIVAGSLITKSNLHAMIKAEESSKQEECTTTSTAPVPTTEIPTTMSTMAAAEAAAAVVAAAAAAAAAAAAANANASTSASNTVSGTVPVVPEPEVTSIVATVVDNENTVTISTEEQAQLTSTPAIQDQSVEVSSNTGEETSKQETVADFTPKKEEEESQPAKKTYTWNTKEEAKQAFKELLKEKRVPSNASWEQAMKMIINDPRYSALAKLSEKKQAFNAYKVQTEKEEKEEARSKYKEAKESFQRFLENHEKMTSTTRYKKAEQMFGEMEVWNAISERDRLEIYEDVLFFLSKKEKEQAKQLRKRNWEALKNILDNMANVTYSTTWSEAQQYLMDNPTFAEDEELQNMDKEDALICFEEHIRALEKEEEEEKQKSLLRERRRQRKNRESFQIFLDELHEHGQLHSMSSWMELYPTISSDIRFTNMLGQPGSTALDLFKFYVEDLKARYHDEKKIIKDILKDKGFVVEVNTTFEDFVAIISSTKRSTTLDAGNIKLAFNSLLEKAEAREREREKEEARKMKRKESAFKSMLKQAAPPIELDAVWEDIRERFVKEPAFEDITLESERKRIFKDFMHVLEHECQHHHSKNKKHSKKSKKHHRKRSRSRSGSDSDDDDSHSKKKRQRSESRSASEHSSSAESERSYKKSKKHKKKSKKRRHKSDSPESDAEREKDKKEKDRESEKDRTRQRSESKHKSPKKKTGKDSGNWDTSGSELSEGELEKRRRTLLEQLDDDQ
UniProt P11940: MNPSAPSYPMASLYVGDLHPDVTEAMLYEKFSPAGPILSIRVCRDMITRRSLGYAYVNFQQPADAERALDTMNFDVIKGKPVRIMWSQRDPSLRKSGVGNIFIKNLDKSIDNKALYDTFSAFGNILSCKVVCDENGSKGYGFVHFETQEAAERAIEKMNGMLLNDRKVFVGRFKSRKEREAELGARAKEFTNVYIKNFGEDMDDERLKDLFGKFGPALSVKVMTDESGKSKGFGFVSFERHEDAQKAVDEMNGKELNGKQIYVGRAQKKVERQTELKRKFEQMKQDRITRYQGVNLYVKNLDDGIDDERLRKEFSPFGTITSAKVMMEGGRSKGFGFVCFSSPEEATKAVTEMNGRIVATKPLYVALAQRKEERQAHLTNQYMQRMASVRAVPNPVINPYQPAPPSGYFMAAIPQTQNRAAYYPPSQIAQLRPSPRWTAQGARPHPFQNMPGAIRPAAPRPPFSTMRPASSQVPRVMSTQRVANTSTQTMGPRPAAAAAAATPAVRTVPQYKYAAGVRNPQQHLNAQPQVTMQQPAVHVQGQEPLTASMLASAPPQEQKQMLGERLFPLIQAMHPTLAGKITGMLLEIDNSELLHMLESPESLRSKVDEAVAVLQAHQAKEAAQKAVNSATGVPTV
UniProt Q6NZY4: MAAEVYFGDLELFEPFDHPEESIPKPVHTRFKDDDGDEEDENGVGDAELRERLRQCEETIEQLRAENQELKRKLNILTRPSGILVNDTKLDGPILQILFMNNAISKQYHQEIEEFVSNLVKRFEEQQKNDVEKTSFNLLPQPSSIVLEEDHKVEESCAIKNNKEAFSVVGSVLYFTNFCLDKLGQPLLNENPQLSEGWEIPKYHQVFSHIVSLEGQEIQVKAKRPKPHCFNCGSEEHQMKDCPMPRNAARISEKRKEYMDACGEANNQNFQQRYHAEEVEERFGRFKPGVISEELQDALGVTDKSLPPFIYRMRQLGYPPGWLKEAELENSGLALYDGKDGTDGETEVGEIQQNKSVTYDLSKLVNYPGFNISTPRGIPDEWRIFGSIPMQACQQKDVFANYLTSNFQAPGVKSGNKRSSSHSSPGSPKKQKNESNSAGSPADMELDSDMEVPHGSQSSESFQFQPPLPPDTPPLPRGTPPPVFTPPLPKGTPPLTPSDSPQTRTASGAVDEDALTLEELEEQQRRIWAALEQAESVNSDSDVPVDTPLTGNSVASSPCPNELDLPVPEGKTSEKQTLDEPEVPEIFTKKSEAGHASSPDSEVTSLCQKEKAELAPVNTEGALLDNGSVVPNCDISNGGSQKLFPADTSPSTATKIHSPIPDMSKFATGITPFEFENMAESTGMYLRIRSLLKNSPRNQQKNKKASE

In assay [1] the target is T1, V5-tagged full-length ZC3H18 (Z18^fl) (human) (UniProt Q86VM9).
T1 sequence: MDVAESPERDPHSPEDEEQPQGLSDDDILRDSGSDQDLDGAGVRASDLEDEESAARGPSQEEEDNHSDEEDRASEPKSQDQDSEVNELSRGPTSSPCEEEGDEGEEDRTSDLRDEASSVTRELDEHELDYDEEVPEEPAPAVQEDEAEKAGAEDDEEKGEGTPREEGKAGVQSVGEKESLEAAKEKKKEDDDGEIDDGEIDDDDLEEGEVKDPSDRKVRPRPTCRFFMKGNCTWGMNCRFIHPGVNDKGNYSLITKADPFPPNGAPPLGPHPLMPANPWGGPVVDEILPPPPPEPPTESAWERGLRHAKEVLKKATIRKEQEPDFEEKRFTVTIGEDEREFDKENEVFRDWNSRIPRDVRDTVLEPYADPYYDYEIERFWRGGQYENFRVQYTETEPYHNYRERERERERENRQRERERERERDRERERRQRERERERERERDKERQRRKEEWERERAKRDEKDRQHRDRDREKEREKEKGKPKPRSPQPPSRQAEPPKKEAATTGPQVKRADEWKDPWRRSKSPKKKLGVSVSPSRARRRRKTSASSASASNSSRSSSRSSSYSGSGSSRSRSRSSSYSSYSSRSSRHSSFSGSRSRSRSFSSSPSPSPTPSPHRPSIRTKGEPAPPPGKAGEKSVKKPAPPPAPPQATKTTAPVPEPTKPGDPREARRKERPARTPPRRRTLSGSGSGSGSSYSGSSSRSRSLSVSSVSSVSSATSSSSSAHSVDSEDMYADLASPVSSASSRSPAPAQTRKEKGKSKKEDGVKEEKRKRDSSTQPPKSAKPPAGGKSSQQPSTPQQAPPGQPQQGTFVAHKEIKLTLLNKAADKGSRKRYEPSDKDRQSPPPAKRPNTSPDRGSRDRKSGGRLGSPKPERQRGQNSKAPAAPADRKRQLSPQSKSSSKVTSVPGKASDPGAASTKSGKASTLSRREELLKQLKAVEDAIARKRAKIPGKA
Briefly: affinity purification with mass spectrometry; V5-tagged Z18^fl or Z18^trunc transiently expressed in A375 cells; nuclear protein extracted under native conditions; anti-V5 on protein G beads; in triplicate, with or without RNase A/T1 (100 ug/mL); Z18^fl and Z18^trunc compared in the +RNase ….

Assay [2] concerns the target T1, V5-tagged full-length ZC3H18 (Z18^fl) (human). The assay is described as above. The source holds these as a separate data set.

Read-outs that look alike come from different tables or passages of the source. Results are given in words; binding and its absence hold for the method and conditions named. Binding seen in cells or lysates may run through a third protein. These calls come from enrichment with a bait or labelling near it, and not all partners need be listed. Where a sequence is shown, tags or fusion partners need not be part of it.

Turning to PRPF4B (human (endogenous in A375)), in assay [1], the binding entry is recorded as “binds”.
As for PRPF40A (from UniProt O75400 1-957), in assay [1], the binding entry is “binds”.
For the molecule PABPC1 (from UniProt P11940 1-636), the binding entry in assay [1] is listed as “binds”.
On the same count and under the same terms, the entry for ZCCHC8 (from UniProt Q6NZY4 1-707) is “binds”.

B1: SRRT (protein, UniProt Q9BXP5 1-876)
chain: MGDSDDEYDRRRRDKFRRERSDYDRSRERDERRRGDDWNDREWDRGRERRSRGEYRDYDRNRRERFSPPRHELSPPQKRMRRDWDEHSSDPYHSGYEMPYAGGGGGPTYGPPQPWGHPDVHIMQHHVLPIQARLGSIAEIDLGVPPPVMKTFKEFLLSLDDSVDETEAVKRYNDYKLDFRRQQMQDFFLAHKDEEWFRSKYHPDEVGKRRQEARGALQNRLRVFLSLMETGWFDNLLLDIDKADAIVKMLDAAVIKMEGGTENDLRILEQEEEEEQAGKPGEPSKKEEGRAGAGLGDGERKTNDKDEKKEDGKQAENDSSNDDKTKKSEGDGDKEEKKEDSEKEAKKSSKKRNRKHSGDDSFDEGSVSESESESESGQAEEEKEEAEEALKEKEKPKEEEWEKPKDAAGLECKPRPLHKTCSLFMRNIAPNISRAEIISLCKRYPGFMRVALSEPQPERRFFRRGWVTFDRSVNIKEICWNLQNIRLRECELSPGVNRDLTRRVRNINGITQHKQIVRNDIKLAAKLIHTLDDRTQLWASEPGTPPLPTSLPSQNPILKNITDYLIEEVSAEEEELLGSSGGAPPEEPPKEGNPAEINVERDEKLIKVLDKLLLYLRIVHSLDYYNTCEYPNEDEMPNRCGIIHVRGPMPPNRISHGEVLEWQKTFEEKLTPLLSVRESLSEEEAQKMGRKDPEQEVEKFVTSNTQELGKDKWLCPLSGKKFKGPEFVRKHIFNKHAEKIEEVKKEVAFFNNFLTDAKRPALPEIKPAQPPGPAQILPPGLTPGLPYPHQTPQGLMPYGQPRPPILGYGAGAVRPAVPTGGPPYPHAPYGAGRGNYDAFRGQGGYPGKPRNRMVRGDPRAIVEYRDLDAPDDVDFF
With B1, the binding entry in assay [2] is “binds”.

B2: FNBP4 (protein, UniProt Q8N3X1 1-1017)
chain: MGKKSRAVPGRRPILQLSPPGPRGSTPGRDPEPEPDTEPDSTAAVPSQPAPSAATTTTTAVTAAAASDDSPSEDEQEAVQEVPRVVQNPPKPVMTTRPTAVKATGGLCLLGAYADSDDDDNDVSEKLAQSKETNGNQSTDIDSTLANFLAEIDAITAPQPAAPVGASAPPPTPPRPEPKEAATSTLSSSTSNGTDSTQTSGWQYDTQCSLAGVGIEMGDWQEVWDENTGCYYYWNTQTNEVTWELPQYLATQVQGLQHYQPSSVPGAETSFVVNTDIYSKEKTISVSSSKSGPVIAKREVKKEVNEGIQALSNSEEEKKGVAASLLAPLLPEGIKEEEERWRRKVICKEEPVSEVKETSTTVEEATTIVKPQEIMLDNIEDPSQEDLCSVVQSGESEEEEEQDTLELELVLERKKAELRALEEGDGSVSGSSPRSDISQPASQDGMRRLMSKRGKWKMFVRATSPESTSRSSSKTGRDTPENGETAIGAENSEKIDENSDKEMEVEESPEKIKVQTTPKVEEEQDLKFQIGELANTLTSKFEFLGINRQSISNFHVLLLQTETRIADWREGALNGNYLKRKLQDAAEQLKQYEINATPKGWSCHWDRDHRRYFYVNEQSGESQWEFPDGEEEEEESQAQENRDETLAKQTLKDKTGTDSNSTESSETSTGSLCKESFSGQVSSSSLMPLTPFWTLLQSNVPVLQPPLPLEMPPPPPPPPESPPPPPPPPPPAEDGEIQEVEMEDEGSEEPPAPGTEEDTPLKPSAQTTVVTSQSSVDSTISSSSSTKGIKRKATEISTAVVQRSATIGSSPVLYSQSAIATGHQAAGIGNQATGIGHQTIPVSLPAAGMGHQARGMSLQSNYLGLAAAPAIMSYAECSVPIGVTAPSLQPVQARGAVPTATIIEPPPPPPPPPPPPPPAPKMPPPEKTKKGRKDKAKKSKTKMPSLVKKWQSIQRELDEEDNSSSSEEDRESTAQKRIEEWKQQQLVSGMAERNANFEALPEDWRARLKRRKMAPNT
As to B2, the binding entry in assay [2] is on record as “binds”.
